Experimental data as given in publication PMC9772883.
Results are given in words; binding and its absence hold for the method and conditions named. Binding seen in cells or lysates may run through a third protein. Here binding means that the protein was enriched with, or labelled near, the bait; the list need not be complete. Blank lines part the entries; values can stand above or below the molecule they belong to.

Sequences of proteins named here, by UniProt entry; tags and fusion partners are left off. A change or cut given only in a name is not applied to a line headed by its entry.
UniProt C0H5G7: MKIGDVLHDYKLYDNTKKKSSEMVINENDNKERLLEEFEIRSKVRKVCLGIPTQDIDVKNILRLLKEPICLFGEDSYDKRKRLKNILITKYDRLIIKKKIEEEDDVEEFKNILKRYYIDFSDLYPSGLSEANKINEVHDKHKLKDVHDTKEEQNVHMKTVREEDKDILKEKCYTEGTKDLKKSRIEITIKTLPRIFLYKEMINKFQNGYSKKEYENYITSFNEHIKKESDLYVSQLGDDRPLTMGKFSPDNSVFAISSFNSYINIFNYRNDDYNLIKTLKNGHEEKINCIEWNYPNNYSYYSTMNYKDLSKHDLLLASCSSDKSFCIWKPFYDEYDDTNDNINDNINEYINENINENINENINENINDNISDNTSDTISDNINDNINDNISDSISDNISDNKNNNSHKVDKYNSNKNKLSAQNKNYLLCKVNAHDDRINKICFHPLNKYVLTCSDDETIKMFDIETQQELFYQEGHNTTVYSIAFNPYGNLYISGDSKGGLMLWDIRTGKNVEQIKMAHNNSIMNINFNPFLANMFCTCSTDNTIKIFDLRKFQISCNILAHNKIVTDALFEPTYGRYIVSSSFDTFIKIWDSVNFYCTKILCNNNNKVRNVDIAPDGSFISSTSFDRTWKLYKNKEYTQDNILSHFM
UniProt Q8IBH7: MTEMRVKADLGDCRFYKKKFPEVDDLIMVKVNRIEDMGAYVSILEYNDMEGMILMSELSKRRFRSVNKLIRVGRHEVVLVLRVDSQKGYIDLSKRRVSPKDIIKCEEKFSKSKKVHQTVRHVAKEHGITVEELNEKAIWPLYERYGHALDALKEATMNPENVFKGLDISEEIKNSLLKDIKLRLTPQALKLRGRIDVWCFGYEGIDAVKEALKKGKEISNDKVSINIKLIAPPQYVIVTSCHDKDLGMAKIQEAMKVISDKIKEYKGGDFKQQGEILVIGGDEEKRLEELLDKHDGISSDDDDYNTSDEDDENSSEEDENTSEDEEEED
UniProt Q8ILW9: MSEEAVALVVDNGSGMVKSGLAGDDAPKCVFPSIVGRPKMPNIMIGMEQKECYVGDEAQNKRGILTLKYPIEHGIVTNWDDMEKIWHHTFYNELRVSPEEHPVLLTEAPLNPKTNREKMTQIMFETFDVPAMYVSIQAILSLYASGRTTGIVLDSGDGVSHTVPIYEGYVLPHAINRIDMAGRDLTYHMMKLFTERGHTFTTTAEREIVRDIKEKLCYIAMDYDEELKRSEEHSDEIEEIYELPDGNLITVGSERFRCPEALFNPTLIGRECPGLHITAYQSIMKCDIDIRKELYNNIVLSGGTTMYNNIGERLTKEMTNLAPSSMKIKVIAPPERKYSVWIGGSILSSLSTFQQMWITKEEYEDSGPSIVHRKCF
UniProt Q8I390: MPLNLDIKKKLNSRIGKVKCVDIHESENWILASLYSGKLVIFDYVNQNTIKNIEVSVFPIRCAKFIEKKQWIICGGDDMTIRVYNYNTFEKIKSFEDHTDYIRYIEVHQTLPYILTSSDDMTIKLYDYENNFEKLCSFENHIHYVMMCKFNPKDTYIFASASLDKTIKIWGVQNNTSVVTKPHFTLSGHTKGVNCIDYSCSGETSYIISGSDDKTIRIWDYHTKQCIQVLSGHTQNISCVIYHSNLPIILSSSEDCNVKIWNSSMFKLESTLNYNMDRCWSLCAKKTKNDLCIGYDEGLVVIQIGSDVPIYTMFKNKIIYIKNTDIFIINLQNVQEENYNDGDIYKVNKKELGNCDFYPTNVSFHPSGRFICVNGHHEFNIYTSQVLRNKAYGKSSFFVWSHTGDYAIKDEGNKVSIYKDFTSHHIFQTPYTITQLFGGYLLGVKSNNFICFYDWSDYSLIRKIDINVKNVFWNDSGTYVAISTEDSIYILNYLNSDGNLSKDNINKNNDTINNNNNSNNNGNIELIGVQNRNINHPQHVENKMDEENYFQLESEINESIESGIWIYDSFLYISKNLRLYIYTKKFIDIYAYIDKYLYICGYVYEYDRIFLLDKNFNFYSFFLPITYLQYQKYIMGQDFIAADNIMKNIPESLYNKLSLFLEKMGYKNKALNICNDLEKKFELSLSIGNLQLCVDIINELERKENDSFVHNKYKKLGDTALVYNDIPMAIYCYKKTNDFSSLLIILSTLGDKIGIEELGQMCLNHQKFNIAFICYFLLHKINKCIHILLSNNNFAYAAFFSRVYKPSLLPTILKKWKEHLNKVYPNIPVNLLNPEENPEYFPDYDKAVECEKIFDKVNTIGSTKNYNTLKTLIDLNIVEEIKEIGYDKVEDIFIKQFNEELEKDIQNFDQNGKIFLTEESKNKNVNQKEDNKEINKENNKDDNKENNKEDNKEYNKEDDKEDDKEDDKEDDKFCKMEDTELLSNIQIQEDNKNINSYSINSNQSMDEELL
UniProt Q8IKW5: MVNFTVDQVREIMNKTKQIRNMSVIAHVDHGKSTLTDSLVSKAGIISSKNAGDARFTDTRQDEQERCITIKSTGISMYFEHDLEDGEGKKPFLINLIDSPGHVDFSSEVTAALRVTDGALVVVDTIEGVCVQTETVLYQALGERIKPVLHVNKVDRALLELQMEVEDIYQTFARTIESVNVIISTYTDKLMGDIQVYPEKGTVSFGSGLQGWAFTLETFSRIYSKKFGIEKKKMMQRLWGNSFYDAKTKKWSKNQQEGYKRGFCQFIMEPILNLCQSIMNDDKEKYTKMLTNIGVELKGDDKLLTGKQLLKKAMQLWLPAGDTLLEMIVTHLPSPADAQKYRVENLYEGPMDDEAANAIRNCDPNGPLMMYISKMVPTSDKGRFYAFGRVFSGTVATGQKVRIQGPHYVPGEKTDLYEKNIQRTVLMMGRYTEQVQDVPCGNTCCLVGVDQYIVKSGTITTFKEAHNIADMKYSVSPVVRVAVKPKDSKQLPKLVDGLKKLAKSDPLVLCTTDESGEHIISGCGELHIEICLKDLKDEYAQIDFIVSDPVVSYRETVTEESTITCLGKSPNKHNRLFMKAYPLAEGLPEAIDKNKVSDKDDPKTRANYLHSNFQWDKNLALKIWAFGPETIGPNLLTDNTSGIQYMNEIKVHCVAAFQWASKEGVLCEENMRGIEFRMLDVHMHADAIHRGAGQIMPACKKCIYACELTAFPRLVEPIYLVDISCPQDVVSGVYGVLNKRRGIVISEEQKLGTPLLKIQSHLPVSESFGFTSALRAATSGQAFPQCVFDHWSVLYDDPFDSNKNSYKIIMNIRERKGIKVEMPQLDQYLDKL
UniProt Q8IJX5: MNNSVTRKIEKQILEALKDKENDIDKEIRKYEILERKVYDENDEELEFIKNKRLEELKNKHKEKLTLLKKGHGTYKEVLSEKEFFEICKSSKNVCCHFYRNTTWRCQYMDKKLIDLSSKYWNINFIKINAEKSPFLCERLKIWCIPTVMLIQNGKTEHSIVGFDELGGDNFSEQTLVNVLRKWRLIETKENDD
UniProt A0A143ZY29: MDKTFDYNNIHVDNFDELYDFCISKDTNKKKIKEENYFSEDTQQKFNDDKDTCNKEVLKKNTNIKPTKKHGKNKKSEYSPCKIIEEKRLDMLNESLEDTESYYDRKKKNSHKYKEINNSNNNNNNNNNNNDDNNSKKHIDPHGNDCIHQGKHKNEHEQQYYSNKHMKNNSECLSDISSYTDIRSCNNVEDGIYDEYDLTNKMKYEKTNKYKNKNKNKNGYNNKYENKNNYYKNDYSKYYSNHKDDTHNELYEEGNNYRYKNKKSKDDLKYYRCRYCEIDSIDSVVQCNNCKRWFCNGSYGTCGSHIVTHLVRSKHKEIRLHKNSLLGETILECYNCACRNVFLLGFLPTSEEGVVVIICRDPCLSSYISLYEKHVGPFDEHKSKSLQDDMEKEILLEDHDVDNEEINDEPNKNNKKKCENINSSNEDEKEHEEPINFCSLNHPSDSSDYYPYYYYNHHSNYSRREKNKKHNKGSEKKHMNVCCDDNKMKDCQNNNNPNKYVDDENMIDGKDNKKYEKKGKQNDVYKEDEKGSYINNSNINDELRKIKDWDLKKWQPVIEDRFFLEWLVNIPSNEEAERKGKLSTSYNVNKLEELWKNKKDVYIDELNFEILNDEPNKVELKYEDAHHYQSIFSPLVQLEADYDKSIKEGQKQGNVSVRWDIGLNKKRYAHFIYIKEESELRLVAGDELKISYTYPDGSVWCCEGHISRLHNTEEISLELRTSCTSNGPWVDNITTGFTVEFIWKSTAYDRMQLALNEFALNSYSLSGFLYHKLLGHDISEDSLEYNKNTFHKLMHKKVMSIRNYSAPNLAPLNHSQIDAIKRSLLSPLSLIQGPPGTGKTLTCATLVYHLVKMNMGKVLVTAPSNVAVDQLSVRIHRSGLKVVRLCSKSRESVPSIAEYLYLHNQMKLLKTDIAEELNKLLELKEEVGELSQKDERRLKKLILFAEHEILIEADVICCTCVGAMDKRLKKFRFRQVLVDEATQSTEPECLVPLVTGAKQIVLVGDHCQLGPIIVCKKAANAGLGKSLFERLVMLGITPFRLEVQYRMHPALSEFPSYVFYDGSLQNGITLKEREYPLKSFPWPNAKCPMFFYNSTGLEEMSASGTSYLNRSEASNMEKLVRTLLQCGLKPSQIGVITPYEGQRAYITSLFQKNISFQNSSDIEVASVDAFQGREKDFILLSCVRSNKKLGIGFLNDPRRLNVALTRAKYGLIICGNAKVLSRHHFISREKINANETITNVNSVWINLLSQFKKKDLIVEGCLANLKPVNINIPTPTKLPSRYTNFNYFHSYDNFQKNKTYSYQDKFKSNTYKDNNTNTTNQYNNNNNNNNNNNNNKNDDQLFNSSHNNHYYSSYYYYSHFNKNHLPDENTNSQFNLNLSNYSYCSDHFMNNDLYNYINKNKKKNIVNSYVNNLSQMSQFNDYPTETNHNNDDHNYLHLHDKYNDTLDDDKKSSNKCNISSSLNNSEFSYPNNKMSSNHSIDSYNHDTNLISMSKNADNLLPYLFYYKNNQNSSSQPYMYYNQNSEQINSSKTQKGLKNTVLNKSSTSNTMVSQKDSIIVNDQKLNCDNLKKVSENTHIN
UniProt C6KSR5: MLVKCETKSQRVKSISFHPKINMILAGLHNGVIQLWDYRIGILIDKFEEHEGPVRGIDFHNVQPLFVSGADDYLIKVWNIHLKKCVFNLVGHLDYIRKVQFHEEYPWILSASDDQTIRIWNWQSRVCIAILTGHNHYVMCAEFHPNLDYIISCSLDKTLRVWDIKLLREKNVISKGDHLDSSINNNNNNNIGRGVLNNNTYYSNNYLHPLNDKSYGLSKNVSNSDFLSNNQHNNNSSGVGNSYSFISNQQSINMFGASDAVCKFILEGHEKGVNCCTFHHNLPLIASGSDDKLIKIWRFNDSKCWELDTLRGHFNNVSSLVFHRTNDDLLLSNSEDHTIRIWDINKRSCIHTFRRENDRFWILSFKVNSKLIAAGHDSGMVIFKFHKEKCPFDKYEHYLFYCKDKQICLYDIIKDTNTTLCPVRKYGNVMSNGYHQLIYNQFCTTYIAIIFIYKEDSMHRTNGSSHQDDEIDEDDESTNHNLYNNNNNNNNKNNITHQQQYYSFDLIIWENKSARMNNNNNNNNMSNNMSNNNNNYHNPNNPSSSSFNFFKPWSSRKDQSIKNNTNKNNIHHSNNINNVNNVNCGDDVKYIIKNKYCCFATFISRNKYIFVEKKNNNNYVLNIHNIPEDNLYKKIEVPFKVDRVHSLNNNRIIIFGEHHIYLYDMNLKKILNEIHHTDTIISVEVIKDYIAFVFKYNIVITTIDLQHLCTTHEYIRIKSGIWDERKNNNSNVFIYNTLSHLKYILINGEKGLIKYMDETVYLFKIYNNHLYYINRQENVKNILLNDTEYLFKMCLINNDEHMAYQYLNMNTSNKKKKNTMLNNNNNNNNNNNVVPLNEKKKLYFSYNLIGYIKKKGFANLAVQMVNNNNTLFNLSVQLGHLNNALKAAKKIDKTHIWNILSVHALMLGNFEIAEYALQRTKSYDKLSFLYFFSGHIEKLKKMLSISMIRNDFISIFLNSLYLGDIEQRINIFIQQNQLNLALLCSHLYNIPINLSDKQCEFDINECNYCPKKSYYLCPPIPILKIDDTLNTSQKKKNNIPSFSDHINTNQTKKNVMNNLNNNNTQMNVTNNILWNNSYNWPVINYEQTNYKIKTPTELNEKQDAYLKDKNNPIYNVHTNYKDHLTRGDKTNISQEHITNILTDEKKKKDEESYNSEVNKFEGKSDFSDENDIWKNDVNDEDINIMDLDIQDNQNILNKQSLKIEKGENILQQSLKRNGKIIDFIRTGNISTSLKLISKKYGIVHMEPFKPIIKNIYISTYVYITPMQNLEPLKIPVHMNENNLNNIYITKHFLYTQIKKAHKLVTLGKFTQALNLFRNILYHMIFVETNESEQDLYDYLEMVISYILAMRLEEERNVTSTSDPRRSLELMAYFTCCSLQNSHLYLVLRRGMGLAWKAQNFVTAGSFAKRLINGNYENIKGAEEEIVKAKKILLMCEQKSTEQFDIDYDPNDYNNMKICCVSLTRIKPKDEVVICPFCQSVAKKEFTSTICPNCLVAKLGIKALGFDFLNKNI

Molecular target: CCT8-FLAG (P. falciparum CCT8/θ subunit with C-terminal 3x-FLAG tag) (P. falciparum) (UniProt O96220)
Assay: affinity purification with mass spectrometry; lysate of the CCT-theta-FLAG parasite line (1 L culture) on 200 µl anti-FLAG resin overnight at 4°C; wash 30 mM HEPES pH 8.0, 300 mM NaCl, 2.5% glycerol, 2 mM EDTA, 4 mM DTT; bead-bound fraction by Tandem Mass Tag mass spectrometry; hits more than two-fold over the RNAP2-FLAG control pull-down

binding: binds
Molecule: WD40 mRNA splicing (C0H5G7) (from UniProt C0H5G7)

binding: binds
Molecule: initiation factor 2α (eIF2α) (from UniProt Q8IBH7)

binding: binds
Molecule: Actin I (from UniProt Q8I4X0 1-376)

binding: binds
Molecule: WD40 mRNA splicing (Q8IL37) (from UniProt Q8IL37)

binding: binds
Molecule: Tubulin γ-chain complex (from UniProt Q8I2I3)

binding: binds
Molecule: Actin II (from UniProt Q8ILW9 1-376)

binding: binds
Molecule: WD40 CAF1 complex (from UniProt Q8I5D0)

binding: binds
Molecule: WD40 dsDNA break (from UniProt Q8IJ73)

binding: binds
Molecule: WD40 Fe-S assembly (from UniProt Q8I5V5)

binding: binds
Molecule: WD40 Coatomer β (from UniProt Q8I390)

binding: binds
Molecule: ATG7 related protein (Q8IC20) (from UniProt Q8IC20)

binding: binds
Molecule: WD40 U3snoRNA (from UniProt Q8ILZ2)

binding: binds
Molecule: Hsp70-Hsp90 organising protein (from UniProt Q8ILC1 1-564)

binding: binds
Molecule: WD40 mRNA splicing (Q8IJZ5) (from UniProt Q8IJZ5)

binding: binds
Molecule: CCT4 (from UniProt C0H5I7)

binding: binds
Molecule: WD40 CAF1 (from UniProt Q8IE52)

binding: binds
Molecule: PfEF2 (from UniProt Q8IKW5)

binding: binds
B1: Tubulin γ-chain (protein, UniProt Q8IAN7 1-452)
chain: MPREIITLQCGQCGNQIGVEFWKQLCNEHNIDQEGILKNNNFLNEDRKDIFFYQADDEHFIPRALLFDLEPRVINSIQTSEYRNLYNPENMFISKEGGGAGNNWGCGYSQGHKVEEEIIDMIDREVDNSDNLEGFILSHSIAGGTGSGMGSYLLELLNDNYSKKMIQTFSVFPLLTNESSDVVVQPYNSILTLKRLILSTDSVVVIDNTSLNRIFVERLKLNNPTFQQTNTIISNVMSASTTTLRYPGSMNNDMISLISSLIINPKCHFLITSYTPITIDKHISNVQKTTVLDVMKRLLHTKNIMVSAPVRRGMYISILNIIRGETDPTQVHKGLQRIRDRKLVNFIKWNPASIQVTLAKQSPHVVSQHKVCGLMMANHTSISTLFERCVTQFDRLYKRRAFLENYKKESMFSSADGQGNFEEMESSKEITQNLIDEYKSAERDDYFTNTYI

binding: binds
B2: activator of Hsp90 ATPase (protein, UniProt O97244 1-349)
chain: MSGSVWNSNSWHWEERNYNKWAESYIKYNLSNLKIEKEDLTIYFDNLQVSGNACVSIRKGKQINSFEYIIKFEWLYSKKKEGKDYFGGSVEIPDFSTFSLEENDYAINIERTDESENLRFIYDSILKKEGKEKIKECLKNFQEDLLKHDKNESNKELKIKEEEKIKLENIKTCNEKKTEEENKSNQNINNNINDEKKEGSVWNINNYHWEEKCLTKWAIEELQNIFNKSIIELSNNIFLEFFSCDVEGEASSSLRKKKKILMYDLKITSEWKAYQKNKNQQIEIESKGHVSINDILSDFSSDDNTKYSYYFIFDNKTDEYNQINDVIKLEGPNKINQIIDDFILKMREK

Second part, the molecule before the results:

Molecule: WD40 novel (Q8IHX6) (from UniProt Q8IHX6)
binding: binds

Molecule: Tubulin α-chain Chr 9 (from UniProt Q6ZLZ9 1-453)
binding: binds

Molecule: CCT2 (from UniProt O97247)
binding: binds

Molecule: Hsp40A chaperone (from UniProt Q8IL88)
binding: binds

Molecule: Actin-like (from UniProt Q8I450)
binding: binds

Molecule: Tubulin α-chain Chr 4 (from UniProt Q8IFP3 1-450)
binding: binds

Molecule: Phosducin-like 2 (from UniProt Q8IJX5)
binding: binds

Molecule: component of the diphthamide complex (from UniProt A0A143ZY29)
binding: binds

Molecule: WD40 novel (Q8IKN9) (from UniProt Q8IKN9)
binding: binds

Molecule: CCT5 (from UniProt O97282)
binding: binds

Molecule: WD40 Coatomer α (from UniProt C6KSR5)
binding: binds

Molecule: WD40 mRNA splicing (O97292) (from UniProt O97292)
binding: binds

Molecule: WD40 NOP10 (from UniProt Q8IAL3)
binding: binds

Molecule: Actin-related (from UniProt Q8IBQ9)
binding: binds
